Data as given in PubChem BioAssay AID1259405 (NCATS, 2018)
In all, the deposit lists about 50,000 reagents; shown is an unselected part. About 4,000 of all reagents (8%) count as active. 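Mouse siRNA library applied to hamster cells; one well for each siRNA.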 The numbers tell different reagents against one gene apart.

Aim: 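Knock-downs that lift recombinant protein yield in hamster ovary cells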 (primary screen)
System: Chinese hamster CHO-K1 ovary cells with stable secreted eGFP expression
Reagent: single siRNA against mouse genes, 0.8 pmol siRNA per well (2 µl of 400 nM stock)
Duration: 3 days
Read-out: 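Percent of the per-plate non-targeting control median for intracellular GFP per well by laser scanning cytometry and for cell viability by ATP luminescence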
Scale: GFP, % of control: higher = more GFP per well, higher productivity; viability (ATP), % of control: higher = more viable cells (more ATP)
Rule for the call: 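a knock-down is called active if GFP reaches 120% or more of non-targeting control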

gene knocked down,reagent no.,"GFP, % of control","viability (ATP), % of control",Outcome
Doc2g,1,52.1,69.2,inactive
Doc2g,2,136,81.5,active
Doc2g,3,40,43.6,inactive
Amot,1,70.9,55.6,inactive
Amot,2,71.6,58.3,inactive
Amot,3,80.3,84.2,inactive
C1ra,1,91.6,70.4,inactive
C1ra,2,63.8,98.4,inactive
Ostc,1,90.8,45.7,inactive
Ostc,2,80.4,48.1,inactive
Ostc,3,71.9,68.5,inactive
Ube2m,1,207,95.9,active
Ube2m,2,75.7,72.1,inactive
Ube2m,3,77.9,85.2,inactive
Mb21d2,1,34.8,25.3,inactive
Mb21d2,2,72.7,56.9,inactive
Mb21d2,3,74.8,66.3,inactive
Iqcc,1,32,45.6,inactive
Iqcc,2,93.5,116,inactive
Iqcc,3,121,140,active
Rbm41,1,70.4,88.1,inactive
Rbm41,2,65.2,81.1,inactive
Rbm41,3,138,74.8,active
Mcee,1,103,79.4,inactive
Mcee,2,89.6,93.3,inactive
Mcee,3,39.2,37.8,inactive
Zswim2,1,80.4,92.8,inactive
Zswim2,2,105,54.4,inactive
Zswim2,3,96.6,115,inactive
Nudt4,1,54.4,29.5,inactive
Nudt4,2,76.4,101,inactive
Nudt4,3,69.5,72.4,inactive
C130050O18Rik,1,64.3,72.3,inactive
C130050O18Rik,2,73.5,81,inactive
C130050O18Rik,3,78.8,91.5,inactive
Or10a5,1,65.3,64.4,inactive
Or10a5,2,77.6,92.6,inactive
Or10a5,3,89,69.3,inactive
Emc1,1,114,80.3,inactive
Emc1,2,67.9,84.5,inactive
Emc1,3,113,120,inactive
Efr3a,1,94.1,90.7,inactive
Efr3a,2,94.1,56.3,inactive
Efr3a,3,91.9,107,inactive
Zfp280c,1,57.1,69.9,inactive
Zfp280c,2,67.7,69.7,inactive
Zfp280c,3,62.1,83.9,inactive
Or6c65,1,51.6,45.4,inactive
Or6c65,2,70.5,71.2,inactive
Or6c65,3,67.1,48.1,inactive
Nuak1,1,102,90.6,inactive
Nuak1,2,109,102,inactive
Nuak1,3,85.1,62.1,inactive
Plch1,1,113,107,inactive
Plch1,2,70.5,78.9,inactive
Plch1,3,51,42.2,inactive
Dppa2,1,87.7,73.5,inactive
Dppa2,2,56.6,73.1,inactive
Dppa2,3,57.5,29.7,inactive
Hmox2,1,108,103,inactive
Hmox2,2,64.7,81.3,inactive
Hmox2,3,139,86.1,active
Sap30,1,128,140,active
Sap30,2,58.7,74.8,inactive
Zfp296,1,68.9,95,inactive
Zfp296,2,50.6,60.6,inactive
Zfp296,3,46.1,71.5,inactive
Pole4,1,85.8,95.9,inactive
Pole4,2,127,95.9,active
Limd2,1,143,110,active
Limd2,2,72.8,112,inactive
Limd2,3,92.7,103,inactive
Hinfp,1,109,113,inactive
Hinfp,2,81.5,55.4,inactive
Azin1,1,85.8,125,inactive
Azin1,2,112,85.2,inactive
Jag1,1,92.7,91.8,inactive
Jag1,2,88.8,64.6,inactive
Jag1,3,89.4,69.7,inactive
Tspan13,1,62.9,88.5,inactive
Tspan13,2,56,61.4,inactive
Tspan13,3,43.3,90,inactive
Gcc2,1,81.3,65.5,inactive
Gcc2,2,56.8,54,inactive
Gcc2,3,116,85.9,inactive
